# Results of single-concentration screens

Source: ChEMBL document CHEMBL3988442, “University of Dundee, Small-Polar-MMV Screening Library” (2021).

Values are the deposited “Percent Effect”, in %. The controls that fix the scale are not given in the record; negative values are as filed. The compounds are a random part of those screened. Two or more numbers in one place are separate tests of the same structure; such repeats can differ widely.

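Growth of Mycobacterium tuberculosis over 4 days (cholesterol / DPPC medium with tyloxapol); the read-out is not stated. Tested at 50 µM. Direction is inferred from retests: higher values go with more growth inhibition. Size under these conditions: about 69,000 compounds, about 370 of them at 50% or above in at least one test.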

With CCN(CC)C(=O)CSc1nc2nc(C)ccc2o1 the screen gave -10.53%.
With O=C(N1CCOCC1)N1CCc2ncc(CN3CCCCC3)n2CC1.O=C(O)C(F)(F)F the screen gave -6.573% & 4.949%.
With COCc1cc(CN(C)C(=O)CCC(=O)Nc2cc(C)ccc2F)n[nH]1 the screen gave 17.81%.
With CCOC(C)c1nc(Cn2cc(C)cn2)cs1 (centres undefined) the screen gave 17.54%.
With CS(=O)(=O)N[C@H]1CN(C(=O)CCc2ccc(=O)[nH]n2)C[C@@H]1C1CC1 the screen gave 10.41%.
With CCC(NC(=O)Cn1ccc(=O)n(C)c1=O)c1ccccc1OC (centres undefined) the screen gave -14.82%.
With CN(C)CCN(Cc1ccc(F)cc1)C(=O)c1ccn(C)c(=O)c1 the screen gave 2.946%.
With CN1CCOC(CNCc2cccc(OC(F)(F)F)c2)C1 (centres undefined) the screen gave 22.85%.
With Cc1csc(CNC(=O)N2CCCC(c3nncn3C)C2)n1 (centres undefined) the screen gave -9.408%.
With Cc1nnc(NC(=O)N2CCC(N3CCCCC3)CC2)s1 the screen gave -3.414%.
With O=C(O)C(F)(F)F.O=C(O)C(F)(F)F.[H][C@@]12COC[C@]1(CN1CCOCC1)CN(S(=O)(=O)c1cccnc1)C2 the screen gave 15.17%.
With [H][C@@]12CCN(C(=O)COC)CC[C@]1(C(=O)Nc1ccccc1)CCN2C the screen gave -0.7921%.
With Cc1cc(CN2CCC(C(=O)O)(n3ccc(-c4ccco4)n3)CC2)on1 the screen gave 16.72%.
With COc1ccc(-c2cn(CCn3c(C)cc(C)nc3=O)nn2)cn1 the screen gave -2.682%.
With COc1ccccc1NC(=O)Cc1c(C)nc2c(c1C)c(=O)[nH]n2C the screen gave 11.61%.
With O=C(NC1CCCC1)c1nc2c(o1)CN(C(=O)CCO)C2 the screen gave -12.44%.
With CC(C)CN1CCn2nc(CNc3ncnc4[nH]ccc34)cc2C1 the screen gave -25.05%.
With [H][C@@]12CS(=O)(=O)C[C@]1([H])N(C(=O)c1cc(C)on1)CCN2C(=O)CC(C)C the screen gave -13.51%.
With CN(C)Cc1n[nH]c2c1CCN(Cc1cccs1)C2.O=C(O)C(F)(F)F.O=C(O)C(F)(F)F the screen gave -27.37%.
With Cc1cccc2nc(CN3CCCC3Cn3cccn3)cn12 (centres undefined) the screen gave 18.68%.
With c1ccc(-c2noc(CCCN3CCCC3Cn3cccn3)n2)cc1 (centres undefined) the screen gave -6.342%.
With Cc1cccc(C(=O)N2CCn3c(CN4CCN(C)CC4)cnc3C2)n1 the screen gave -16.53%.
With CCc1cn[nH]c1C1CCCN(C(=O)c2cc(C(C)C)on2)C1 (centres undefined) the screen gave 8.359%.
With O[C@@H]1C[C@@H](c2nc(Cc3ccccc3)no2)N(Cc2ccc(F)cc2)C1 the screen gave 5.412%.
With Cc1nc2ccccc2nc1CN1CCCC1Cn1cccn1 (centres undefined) the screen gave -18.72%.
With Cc1nc(C)c(C(=O)N2CCCC(C(=O)c3nccn3C)C2)s1 (centres undefined) the screen gave -22.04%.
With O=C(CCNC(=O)c1ccoc1)Nc1c(F)cccc1F the screen gave -16.01%.
With O=C(Cc1n[nH]c(-c2cncc(Br)c2)n1)NCc1cccnc1 the screen gave -5.207%.
With Cc1cccnc1CCNC(=O)CC1C(=O)NCCN1CCC(C)C (centres undefined) the screen gave -23.81%.
With Cn1cnnc1C1CCCN(C(=O)NCCc2ccccn2)C1 (centres undefined) the screen gave -3.705%.
With Cc1nc(-c2ccccc2)n(CC(=O)NC(C)C2CC2)n1 (centres undefined) the screen gave -14.56%.
With Cc1nc(CN(C)c2nc3c(cnn3C(C)(C)C)c(=O)[nH]2)cs1 the screen gave -4.365%.
With Cc1cc2nc(SCC(=O)N3CCOCC3)n(CCC(C)C)c(=O)c2[nH]1 the screen gave -17.2%.
With CCS(=O)(=O)N1CCCCC1c1nc(C(C)C)no1 (centres undefined) the screen gave -13.48%.
With CNc1nnc(SCc2nnc(C(C)(C)C)o2)s1 the screen gave -19.8%.
With CC(C(=O)NC1(C#N)CCCCC1)N1CCc2c(ncn2C)C1 (centres undefined) the screen gave 7.857%.
With COCCn1ccc2c(C(=O)NCC3CCCO3)cccc21 (centres undefined) the screen gave -13.77%.
With N#Cc1ccc(NCc2cccc(OCC3CCCO3)c2)nc1 (centres undefined) the screen gave 41.97%.
With [H][C@@]12CCN(Cc3ccco3)C[C@@]1([H])O[C@@H](C)C2 the screen gave -9.946%.
With CCN(CCc1nc2cc(C)ccc2[nH]1)C(=O)[C@@H](N)Cc1c[nH]cn1 the screen gave -19.49%.
With Cc1cccc(N2CCN(C(=O)CN3CCN(CCO)CC3)CC2)c1 the screen gave 6.566%.
With CC(C)(C)c1oc(C(N)=O)cc1CN1CCCCC1CN1CCOCC1 (centres undefined) the screen gave -4.051%.
With Cc1nn(C)c(C)c1OCC(=O)NCC(O)c1ccsc1 (centres undefined) the screen gave -7.987%.
With Cc1cccc(-c2ccc(C(=O)N3CCSCC3)c(=O)[nH]2)c1 the screen gave -12.54%.